Results taken from publication PMC12270202.
These are yes or no findings as the source states them, for the method shown. Binding seen in cells or lysates may run through a third protein. A result given as binding can be weak or reduced; the word gives no strength. Tags and fused reporters may be left off the sequences shown.

Legend:
Assay in all cases: co-IP; FLAG-tagged bait and HA-tagged partner co-expressed in HEK293T cells; lysed in RIPA buffer 30 min on ice; anti-FLAG M2 magnetic beads at 4°C overnight; washed 3 times with RIPA buffer; analysed by WB
[1] = target: Membralin deletion mutant ΔTM4 with a FLAG-tag
[2] = target: Membralin deletion mutant ΔTM2 with a FLAG-tag
[3] = target: Membralin deletion mutant 1–322 with a FLAG-tag
[4] = target: Membralin deletion mutant 1–345 with a FLAG-tag
[5] = target: Membralin deletion mutant ΔTM3 with a FLAG-tag
[6] = target: Membralin mutant 1–466 (entire cytoplasmic tail deleted) with a FLAG-tag
[7] = target: Membralin deletion mutant 70–628 with a FLAG-tag

Measured: binding

B1: Mannosyl-oligosaccharide 1,2-α-mannosidase (MAN1B1) with a C-terminal HA-tag (enzyme, UniProt Q9UKM7 1-699)
chain: MAACEGRRSGALGSSQSDFLTPPVGGAPWAVATTVVMYPPPPPPPHRDFISVTLSFGENYDNSKSWRRRSCWRKWKQLSRLQRNMILFLLAFLLFCGLLFYINLADHWKALAFRLEEEQKMRPEIAGLKPANPPVLPAPQKADTDPENLPEISSQKTQRHIQRGPPHLQIRPPSQDLKDGTQEEATKRQEAPVDPRPEGDPQRTVISWRGAVIEPEQGTELPSRRAEVPTKPPLPPARTQGTPVHLNYRQKGVIDVFLHAWKGYRKFAWGHDELKPVSRSFSEWFGLGLTLIDALDTMWILGLRKEFEEARKWVSKKLHFEKDVDVNLFESTIRILGGLLSAYHLSGDSLFLRKAEDFGNRLMPAFRTPSKIPYSDVNIGTGVAHPPRWTSDSTVAEVTSIQLEFRELSRLTGDKKFQEAVEKVTQHIHGLSGKKDGLVPMFINTHSGLFTHLGVFTLGARADSYYEYLLKQWIQGGKQETQLLEDYVEAIEGVRTHLLRHSEPSKLTFVGELAHGRFSAKMDHLVCFLPGTLALGVYHGLPASHMELAQELMETCYQMNRQMETGLSPEIVHFNLYPQPGRRDVEVKPADRHNLLRPETVESLFYLYRVTGDRKYQDWGWEILQSFSRFTRVPSGGYSSINNVQDPQKPEPRDKMESFFLGETLKYLFLLFSDDPNLLSLDAYVFNTEAHPLPIWTPA
binds: all assays above
